# Library screening results

Sequences of proteins named here, by UniProt entry; tags and fusion partners are left off.
UniProt E9BF75, entry or part of it: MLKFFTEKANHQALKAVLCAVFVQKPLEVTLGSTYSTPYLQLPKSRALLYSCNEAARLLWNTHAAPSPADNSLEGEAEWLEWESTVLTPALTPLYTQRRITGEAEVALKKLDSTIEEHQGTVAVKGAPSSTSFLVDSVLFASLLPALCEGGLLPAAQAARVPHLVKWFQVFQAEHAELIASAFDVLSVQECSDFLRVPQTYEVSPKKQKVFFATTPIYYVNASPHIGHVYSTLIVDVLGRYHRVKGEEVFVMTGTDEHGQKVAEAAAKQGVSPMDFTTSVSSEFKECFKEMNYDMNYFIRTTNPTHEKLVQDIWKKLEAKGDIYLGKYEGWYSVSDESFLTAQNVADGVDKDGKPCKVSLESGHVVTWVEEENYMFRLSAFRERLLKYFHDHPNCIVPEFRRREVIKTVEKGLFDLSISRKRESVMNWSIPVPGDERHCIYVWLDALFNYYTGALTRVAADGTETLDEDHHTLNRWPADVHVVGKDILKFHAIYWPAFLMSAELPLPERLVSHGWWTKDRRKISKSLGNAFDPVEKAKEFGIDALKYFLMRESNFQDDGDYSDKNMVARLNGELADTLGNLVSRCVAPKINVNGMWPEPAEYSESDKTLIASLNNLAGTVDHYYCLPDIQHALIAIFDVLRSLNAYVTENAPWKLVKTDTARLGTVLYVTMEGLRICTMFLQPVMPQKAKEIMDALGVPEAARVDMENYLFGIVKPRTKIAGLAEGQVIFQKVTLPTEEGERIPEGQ

LdMetRS: 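Methionyl-tRNA synthetase (putative), Leishmania donovani (UniProt E9BF75). Primary screen of methionyl-tRNA synthetase; the read-out is not stated. The test concentration is not given. Values are per cent inhibition. About 68,000 compounds were tested under these conditions; 0.035% (about 24) showed 50% or more at least once.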
Mtb heat-shock: 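Assay on Mycobacterium tuberculosis, filed only as a heat shock assay from Cornell; the read-out is not stated. The concentration is filed as 10 mM, unlikely as a test dose, so the dose is not known. Direction is inferred from retests: higher values go with stronger inhibition. Size under these conditions: about 69,000 compounds, about 930 of them at 50% or above in at least one test.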

Results are percentages, as filed. The record does not define 0% and 100%; most values in the screen are far below 50% and negative numbers occur (in some assays of this library far below -100). Compounds were drawn at random from those tested, without regard to their results. A dash means the value is not listed here; it may have been measured.

compound | LdMetRS | Mtb heat-shock
CN(C)c1cc(C2CCCN2)ccn1 (stereo not given) | 12.19 | -7.752
CCCn1ncc(C(=O)NCCc2[nH]nc3c2CCCC3)c1C | 5.025 | 3.106
COCCN1CC(c2nc(CSC)no2)CCC1=O (stereo not given) | 6.145 | -31.89
COCCNc1cc(C)nn2cnnc12 | 12.81 | -4.327
O=C(NCc1ccco1)N1CCCCC1c1nc(C2CC2)no1 (stereo not given) | 12.83 | 1.246
CCC(=O)Nc1nnc(CCOc2ccccc2OC)s1 | 2.764 | 6.661
[H][C@@]12C[C@H](C(=O)N3CCOCC3)[C@@]([H])(CN(C(=O)Nc3ccc(F)cc3)C1)O2 | - | 12.84
CN1CCc2[nH]nc(C(=O)N3CCC4(CN(C)C(=O)O4)C3)c2C1 (stereo not given) | 7.436 | 3.409
COCCCC(=O)NS(=O)(=O)c1ccc2c(c1)OCCCO2 | 11.02 | -7.857
Cn1ccnc1C(=O)N1CCC2(CCN2c2ncccn2)C1.O=C(O)C(F)(F)F (stereo not given) | - | 7.793
CN(C)S(=O)(=O)NCC1CCN(Cc2ccccc2F)CC1 | 7.542 | -14.22
[H][C@@]12COC(=O)N1CCN(C(=O)NC(C)C)C2 | - | -33.01
Cc1ccc(CN2CCc3ncnc(OC(C)C)c3CC2)s1.O=C(O)C(F)(F)F | - | -25.69
COc1ccc(CSc2nnc(N)n2C2CC2)cc1F | 2.09 | -20.84
Cc1nc(CN2CCCCC2CCc2cccs2)co1 (stereo not given) | 10.18 | -19.03
c1coc(CN2CCc3nnc(COc4cncnc4)n3CC2)c1 | 5.229 | -
COCC1CCCN(C(=O)c2ccc(NC(=O)CC(C)C)c(C)c2)C1 (stereo not given) | 12.11 | -7.41
COC(=O)c1cccc(S(=O)(=O)NC(=O)c2cccc(OC)c2OC)c1 | 8.493 | -6.984
Cc1cc(C)n(CC2CCCN2C(=O)c2c[nH]c3ncccc23)n1 (stereo not given) | 0.3175 | -1.645
O=C(CCc1nc2cccnc2[nH]1)NCc1ccc2c(c1)OCO2 | 16.18 | 3.59
Cc1cnc(NCc2csc(C(C)C)n2)nc1-c1cnn(C)c1 | 19.06 | -2.557
CCC(C)Oc1ccc(CNCCNC(C)=O)cc1OC (stereo not given) | 23.49 | -0.7159
CC(C)N(C)C(=O)COc1ccc(-c2noc(C3CCCO3)n2)cc1 (stereo not given) | 7.833 | 3.225
Cc1ccc(CN(C)Cc2cnc(N3CCOCC3)s2)o1 | 9.661 | -27.71
Cc1ccc(-c2nnc(CN3CCCCC3Cn3cncn3)o2)cc1 (stereo not given) | 19.32 | -11.59
CCN(c1ccc(C(=O)N2CCCCC2)cc1)S(=O)(=O)CC | 8.451 | 12.41
CCn1ncc2c1C(COC)N(C(=O)CCc1ccccc1)CC2 (stereo not given) | 2.584 | -
CC(=O)N1CCN(C(=O)c2cc(-n3cnnn3)ccc2Cl)CC1 | 5.634 | -9.954
CN(C)CCOCc1cncc2c1CCN(C1CCOC1)C2 (stereo not given) | 17.49 | -
O=C(O)C(F)(F)F.O=S(=O)(C1CC1)N1CCC2(CC1)CN(Cc1nccs1)CCO2 | - | -28.04
C[C@@H]1CN(C(=O)CCCN2CCOCC2)CC[C@@]1(O)C1CCC1 | 10.57 | 11.88
O=C(O)C(F)(F)F.O=C(O)C(F)(F)F.[H][C@@]12CCCO[C@]1([H])[C@@H](OCc1ccncc1)CN2Cc1scnc1C | - | -24.98
Cc1n[nH]c(C2CN(C(=O)c3cc(C4CC4)[nH]n3)CCO2)n1 (stereo not given) | 19.44 | 5.563
CC(C)(CO)CNC(=O)c1cc(-c2cc[nH]n2)n2ccccc12.O=C(O)C(F)(F)F | - | 10.76
CCc1cnc(C)nc1N1CCN(Cc2ccc(-c3cc[nH]n3)o2)CC1 | 2.338 | -6.032
O=C(O)C(F)(F)F.O=C1COC2(CCN(Cc3ccoc3)CC2)CN1CCn1cccn1 | - | 11.79
CC(CNS(N)(=O)=O)Oc1ccc(Cl)cc1 (stereo not given) | 12.45 | -4.964
O=C(O)C(F)(F)F.[H][C@]12CC[C@@]3(N=C(C)N(CC4CC4)C3=O)[C@@]1([H])CN(Cc1ccccc1)C2 | - | -7.09
CNC(=O)NC(=O)CN(C)C(c1cccnc1)c1ccc(F)cc1F (stereo not given) | 20.57 | 9.948
CCc1c(C(=O)N2CCN(CC(N)=O)CC2)cnn1C(C)(C)C | 11.81 | 1.225
CCc1c(C(=O)N2CCNC(=O)C2)cnn1C(C)(C)C | 25.57 | 3.577
Cc1cnn(CCNCc2ccccc2OCc2ccncc2)c1 | 16.33 | -5.2
O=C(Cc1cccs1)NCC(=O)Nc1cn[nH]c1 | 14.84 | -15.86
CCC(Oc1ccc(N(C)S(C)(=O)=O)cc1)C(N)=O (stereo not given) | 8.791 | -0.2739
CN1CCN(C2COC3(CCN(CC4CC4)CC3)C2)CC1 (stereo not given) | 9.42 | -
[H][C@@]12CCN(S(=O)(=O)CC)[C@]1([H])CCC(=O)N2CCOC | - | 10.01
CC1(c2cc[nH]n2)CCN(C(=O)c2ccc(Cl)cc2)CC1 | 18.99 | -10.62

The values are deposited in ChEMBL (CHEMBL3988442, “University of Dundee, Small-Polar-MMV Screening Library” (2021)).